Earlier results as cited in US20220160666A1, “COMPOSITIONS FOR USE IN SURGERY” (BTG INTERNATIONAL LIMITED, priority 2004, published 2022).

Test system: brain field potentials (EEG power spectrum)
Conditions: rats; sedative analgesics; Dimpfel et al, 1986; cited from earlier work

CN1C(=O)CN=C(c2ccccc2)c2cc(Cl)ccc21 [diazepam]
change of EEG power in the beta range: power increases in the beta range of varying degrees

CN1CC[C@]23c4c5ccc(O)c4O[C@H]2[C@@H](O)C=C[C@H]3[C@H]1C5 [morphine]
change of EEG power in the beta range: power increases in the beta range of varying degrees
